Literature values as cited in patent US7595395B2, “Gabaergic agents to treat memory deficits” (priority 2005, dated 2009).

Chains of the proteins cited; added tags and fusions are not shown. Residues count along the entry.
UniProt P18507, 40-475: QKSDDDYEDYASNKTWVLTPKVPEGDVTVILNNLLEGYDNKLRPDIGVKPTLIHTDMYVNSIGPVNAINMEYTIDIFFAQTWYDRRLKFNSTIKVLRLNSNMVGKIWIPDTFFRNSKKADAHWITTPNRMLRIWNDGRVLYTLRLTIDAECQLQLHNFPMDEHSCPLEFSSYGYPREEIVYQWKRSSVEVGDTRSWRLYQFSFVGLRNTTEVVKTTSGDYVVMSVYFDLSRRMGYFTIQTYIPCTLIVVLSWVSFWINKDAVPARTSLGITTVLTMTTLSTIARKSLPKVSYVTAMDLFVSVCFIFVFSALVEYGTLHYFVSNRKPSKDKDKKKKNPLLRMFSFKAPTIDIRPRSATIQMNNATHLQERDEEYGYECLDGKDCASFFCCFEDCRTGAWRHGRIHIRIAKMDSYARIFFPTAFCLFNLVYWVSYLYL
UniProt P31644, 32-462: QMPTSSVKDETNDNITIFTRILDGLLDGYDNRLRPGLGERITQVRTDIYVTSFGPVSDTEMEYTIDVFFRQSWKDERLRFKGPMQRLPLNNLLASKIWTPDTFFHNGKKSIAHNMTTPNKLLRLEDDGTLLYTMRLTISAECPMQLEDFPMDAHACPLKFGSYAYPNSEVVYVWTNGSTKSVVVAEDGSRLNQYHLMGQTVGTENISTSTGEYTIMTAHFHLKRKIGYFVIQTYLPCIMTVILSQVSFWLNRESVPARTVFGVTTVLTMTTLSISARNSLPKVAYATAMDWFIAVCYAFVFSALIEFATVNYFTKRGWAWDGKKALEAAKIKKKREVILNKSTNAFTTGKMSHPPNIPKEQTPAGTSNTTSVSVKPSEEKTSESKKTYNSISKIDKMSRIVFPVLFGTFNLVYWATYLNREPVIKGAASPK

Biological target: GABAA/α5 receptors (Homo sapiens, UniProt P18507+P31644)
Settings: read-out: Ki GABAA/α5; Huang et al. 2000, WO 03/082832A2; cited from earlier work

CN1C(=O)CN=C(c2ccccc2)c2cc(Cl)ccc21 [diazepam]
Ki: < 0.025 µM
